{
  "source": "paper PMC9610083",
  "target": "cyclin B1 (human (endogenous in HFF)), P14635",
  "test": "co-IP",
  "conditions": "remark: other sources report otherwise",
  "note": "Results are given in words; binding and its absence hold for the method and conditions named. In cells and extracts the contact can be indirect. Some entries that bind do so weakly or less than the wild type.",
  "data": [
    {"binder": "HCMV protein kinase pUL97, wild type (parental strain Ad169/BADwt), P16788 1-707 (enzyme) MSSALRSRARSASLGTTTQGWDPPPLRRPSRARRRQWMREAAQAAAQAAVQAAQAAAAQVAQAHVDENEVVDLMADEAGGGVTTLTTLSSVSTTTVLGHATFSACVRSDVMRDGEKEDAASDKENLRRPVVPSTSSRGSAASGDGYHGLRCRETSAMWSFEYDRDGDVTSVRRALFTGGSDPSDSVSGVRGGRKRPLRPPLVSLARTPLCRRRVGGVDAVLEENDVELRAESQDSAVASGPGRIPQPLSGSSGEESATAVEADSTSHDDVHCTCSNDQIITTSIRGLTCDPRMFLRLTHPELCELSISYLLVYVPKEDDFCHKICYAVDMSDESYRLGQGSFGEVWPLDRYRVVKVARKHSETVLTVWMSGLIRTRAAGEQQQPPSLVGTGVHRGLLTATGCCLLHNVTVHRRFHTDMFHHDQWKLACIDSYRRAFCTLADAIKFLNHQCRVCHFDITPMNVLIDVNPHNPSEIVRAALCDYSLSEPYPDYNERCVAVFQETGTARRIPNCSHRLRECYHPAFRPMPLQKLLICDPHARFPVAGLRRYCMSELSALGNVLGFCLMRLLDRRGLDEVRMGTEALLFKHAGAACRALENGKLTHCSDACLLILAAQMSYGACLLGEHGAALVSHTLRFVEAKMSSCRVRAFRRFYHECSQTMLHEYVRKNVERLLATSDGLYLYNAFRRTTSIICEEDLDGDCRQLFPE", "values": [
      {"measurement": "binding", "result": "binds"}
    ]}
  ]
}
